The values below come from paper PMC7918530.

Results are given in words; binding and its absence hold for the method and conditions named. Binding seen in cells or lysates may run through a third protein. Binding calls can cover weak binding; strength is not graded here.

The target in the experiment is T1, Upf1 (rat (endogenous in PC12 cells and sympathetic neurons)).
T1 sequence: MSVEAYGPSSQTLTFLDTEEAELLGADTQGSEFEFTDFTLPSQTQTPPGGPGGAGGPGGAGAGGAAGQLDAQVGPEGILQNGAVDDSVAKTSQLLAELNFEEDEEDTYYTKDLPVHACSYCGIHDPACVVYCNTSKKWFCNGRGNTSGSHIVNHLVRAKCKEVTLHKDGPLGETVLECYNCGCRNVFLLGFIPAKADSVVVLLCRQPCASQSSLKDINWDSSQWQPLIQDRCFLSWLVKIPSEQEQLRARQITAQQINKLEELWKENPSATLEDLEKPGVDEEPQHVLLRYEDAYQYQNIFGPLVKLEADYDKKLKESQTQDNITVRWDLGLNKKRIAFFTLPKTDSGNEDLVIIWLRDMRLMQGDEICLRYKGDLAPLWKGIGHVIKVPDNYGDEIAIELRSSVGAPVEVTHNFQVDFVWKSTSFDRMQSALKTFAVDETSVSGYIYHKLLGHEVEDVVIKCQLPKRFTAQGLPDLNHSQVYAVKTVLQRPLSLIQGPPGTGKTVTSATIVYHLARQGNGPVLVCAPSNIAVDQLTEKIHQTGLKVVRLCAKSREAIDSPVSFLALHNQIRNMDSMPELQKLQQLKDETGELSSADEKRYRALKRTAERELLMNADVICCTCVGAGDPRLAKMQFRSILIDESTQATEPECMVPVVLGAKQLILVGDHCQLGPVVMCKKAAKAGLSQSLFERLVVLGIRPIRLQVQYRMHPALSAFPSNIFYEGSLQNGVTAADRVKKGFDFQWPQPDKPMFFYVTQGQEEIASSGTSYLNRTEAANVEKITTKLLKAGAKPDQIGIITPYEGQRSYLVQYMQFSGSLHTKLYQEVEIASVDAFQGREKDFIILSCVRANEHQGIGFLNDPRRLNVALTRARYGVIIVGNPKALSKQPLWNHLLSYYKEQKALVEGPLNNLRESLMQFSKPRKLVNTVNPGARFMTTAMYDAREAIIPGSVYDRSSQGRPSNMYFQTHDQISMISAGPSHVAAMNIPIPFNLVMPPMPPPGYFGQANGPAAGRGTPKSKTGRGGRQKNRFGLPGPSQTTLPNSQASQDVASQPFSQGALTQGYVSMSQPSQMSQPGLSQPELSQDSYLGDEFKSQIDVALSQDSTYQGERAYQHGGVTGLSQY
The experiment can be described thus: co-IP; sympathetic neurons lysed in RIPA buffer; 0.5-1 mg pre-cleared lysate with 2 ug antibody overnight at 4°C, protein A-agarose beads, washes with RIPA buffer, western blot. In general terms: A western blot detects proteins with antibodies after separation by electrophoresis.

As for “Poly(A)-binding protein cytoplasmic 4 (Pabpc4) (rat (endogenous in sympathetic neurons))”, the binding entry was “binds”.
